Data as given in US20240000932A1 (BOOSTIMMUNE, published 2024).
Where a chain is given by its changes, count along the chain named. These are yes or no findings as the source states them, for the method shown. Some binding calls cover weakened binding; strength is not graded here.

T1: TCTP (as used in the immunoblotting and immunoprecipitation screen of Example 2-1) (UniProt P13693)
T1 sequence (looked up): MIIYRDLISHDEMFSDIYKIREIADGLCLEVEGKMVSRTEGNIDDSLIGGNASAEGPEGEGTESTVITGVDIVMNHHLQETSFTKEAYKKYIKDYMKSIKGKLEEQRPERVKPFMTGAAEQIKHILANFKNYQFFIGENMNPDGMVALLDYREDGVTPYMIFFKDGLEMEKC

B1: anti-TCTP mouse monoclonal antibody 55F3 (antibody, V domains shown)
VH: DVQLQESGPGLVKPSQSLSLTCTATGYSIASDYAWNWIRQFPGNKLEWMGYINYSGSTGYNPSLKSRISITRDTSKNQFFLQLNSVTTEDTATYYCARFEAGYWGQGTTLTVSS
VL: DIKMTQSPSSMSASLGERVTITCKASQDINRYLSWFQQKPGKSPKTLIYRANRLVDGVPSRFSGSGSGQDYSLTISSLEYGDMGIYYCLQYNEFPLTFGAGTKLELKR
B2: anti-TCTP mouse monoclonal antibody 51A9 (antibody, V domains shown)
VH: B1 VH with A30T, Q78K
VL: B1 VL with S12Y, I21F, R31S, E79D, G81E, N92Y
B3: anti-TCTP mouse monoclonal antibody 44E1 (antibody, V domains shown)
VH: EVQLQQSDAELVKPGASVKISCKASGYTFTDHAIHWAKQKPEQGLEWIGYISPGNGDLKYNEKFKGKATLTTDKSSSTAYMQLNSLTSEDSAVYFCKSGWTLWGQGTTLTVSS
VL: DIVMSQSPSSPVVSVGEKVTMSCKSSQSLLYRSNQKNYLVWYQLKPGQSPKLLIYWAFTRESGVPDRFTGSGSGTDFTLTISSVKAEDLAVYYCQQHYSYPWTFGGGTKLEVKR

The binders below were run against T1, TCTP (as used in the immunoblotting and immunoprecipitation screen of Example 2-1) (assay: immunoblotting and immunoprecipitation screen of hybridoma antibodies).

Row | binding | Binder
1 | binds | B1
2 | binds | B2
3 | binds | B3
